Reference: patent US20130022980
The exact form of at least one protein or probe is not confirmed. For some of these results: A weaker result is weaker than the reference pair of the same experiment. For some of these results: Tags and fusion partners may be left off the protein sequences shown.

Columns and labels:
Assay in all cases: EMSA
[1] = biological target: T1, T4 exo- DNA polymerase-Tbr SSB fusion (Bacteriophage T4 / Thermus brockianus) (UniProt P04415); details: 1x ThermoPol buffer, primer present; mobility shift relative to unfused T4 polymerase; protein details: C-terminal Tbr SSB fusion
T1 sequence: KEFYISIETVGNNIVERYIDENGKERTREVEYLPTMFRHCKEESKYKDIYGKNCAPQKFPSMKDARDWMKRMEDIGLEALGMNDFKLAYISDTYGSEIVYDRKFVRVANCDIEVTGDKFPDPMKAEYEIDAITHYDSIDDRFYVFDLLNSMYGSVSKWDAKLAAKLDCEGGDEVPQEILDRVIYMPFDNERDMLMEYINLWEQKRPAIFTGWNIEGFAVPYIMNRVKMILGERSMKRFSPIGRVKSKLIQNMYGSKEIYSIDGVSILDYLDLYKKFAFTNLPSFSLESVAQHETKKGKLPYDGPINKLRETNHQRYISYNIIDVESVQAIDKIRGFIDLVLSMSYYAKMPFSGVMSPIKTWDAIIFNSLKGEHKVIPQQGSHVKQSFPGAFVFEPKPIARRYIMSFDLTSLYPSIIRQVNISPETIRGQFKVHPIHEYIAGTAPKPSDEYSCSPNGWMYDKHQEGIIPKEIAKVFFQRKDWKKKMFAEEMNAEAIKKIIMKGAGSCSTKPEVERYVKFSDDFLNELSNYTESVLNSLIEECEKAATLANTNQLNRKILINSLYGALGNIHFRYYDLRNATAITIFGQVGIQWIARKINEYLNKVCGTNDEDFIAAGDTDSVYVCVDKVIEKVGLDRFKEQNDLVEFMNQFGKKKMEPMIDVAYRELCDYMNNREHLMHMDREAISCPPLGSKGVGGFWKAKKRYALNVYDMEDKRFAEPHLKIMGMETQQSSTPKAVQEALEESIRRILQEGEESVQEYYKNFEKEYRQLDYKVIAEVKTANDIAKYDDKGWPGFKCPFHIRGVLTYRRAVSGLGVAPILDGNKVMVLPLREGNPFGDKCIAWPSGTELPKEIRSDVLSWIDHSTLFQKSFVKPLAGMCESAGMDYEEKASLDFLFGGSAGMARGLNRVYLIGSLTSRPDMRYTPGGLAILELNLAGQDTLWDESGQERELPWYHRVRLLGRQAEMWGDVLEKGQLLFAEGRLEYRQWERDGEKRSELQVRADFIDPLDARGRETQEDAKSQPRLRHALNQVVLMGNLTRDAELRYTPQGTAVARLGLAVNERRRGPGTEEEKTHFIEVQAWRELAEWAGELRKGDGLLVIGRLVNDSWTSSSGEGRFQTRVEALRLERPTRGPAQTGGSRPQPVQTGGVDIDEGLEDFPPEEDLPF

[2] = biological target: Klenow exo- DNA polymerase-Tbr SSB fusion (Escherichia coli / Thermus brockianus) (UniProt P00582); details: 1x ThermoPol buffer, primer present; mobility shift relative to unfused Klenow; protein details: C-terminal Tbr SSB fusion
[3] = biological target: T2, T4 exo- DNA polymerase (Bacteriophage T4) (UniProt P04415); details: 1x ThermoPol buffer, primer present; no shift comparable to fusion
T2 sequence: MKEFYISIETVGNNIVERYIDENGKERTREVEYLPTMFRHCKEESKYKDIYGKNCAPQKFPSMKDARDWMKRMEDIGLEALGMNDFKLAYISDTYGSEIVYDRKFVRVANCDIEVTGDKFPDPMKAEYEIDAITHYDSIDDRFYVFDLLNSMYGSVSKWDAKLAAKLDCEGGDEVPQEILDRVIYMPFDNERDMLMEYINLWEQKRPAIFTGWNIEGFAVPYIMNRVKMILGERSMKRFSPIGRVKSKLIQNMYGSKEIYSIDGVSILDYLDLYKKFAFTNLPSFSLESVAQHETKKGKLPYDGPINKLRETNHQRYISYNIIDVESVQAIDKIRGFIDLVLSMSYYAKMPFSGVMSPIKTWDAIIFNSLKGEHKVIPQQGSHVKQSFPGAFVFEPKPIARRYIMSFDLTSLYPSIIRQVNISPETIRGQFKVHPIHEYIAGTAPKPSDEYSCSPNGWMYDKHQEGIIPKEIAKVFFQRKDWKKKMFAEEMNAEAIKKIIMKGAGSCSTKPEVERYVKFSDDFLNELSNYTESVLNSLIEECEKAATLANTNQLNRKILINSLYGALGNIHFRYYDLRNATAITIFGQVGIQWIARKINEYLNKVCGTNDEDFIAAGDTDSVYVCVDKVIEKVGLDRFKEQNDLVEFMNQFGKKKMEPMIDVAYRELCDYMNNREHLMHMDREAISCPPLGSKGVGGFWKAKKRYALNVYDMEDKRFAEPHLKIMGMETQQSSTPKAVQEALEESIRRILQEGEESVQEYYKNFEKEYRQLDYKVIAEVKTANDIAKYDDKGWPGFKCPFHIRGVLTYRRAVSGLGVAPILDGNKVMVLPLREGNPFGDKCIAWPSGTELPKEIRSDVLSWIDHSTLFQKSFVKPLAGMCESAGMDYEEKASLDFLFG

[4] = biological target: Klenow exo- DNA polymerase (Escherichia coli) (UniProt P00582); details: 1x ThermoPol buffer, primer present; no shift comparable to fusion

## CGCCAGGGTTTTCCCAGTCACGAC [M13 ssDNA with annealed primer]
[1]
  binding result: binds
[2]
  binding result: binds
[3]
  binding result: binds more weakly
[4]
  binding result: binds more weakly
